Where a sequence shows no end group, the ends are not given.
Assay: general procedure: Fmoc solid-phase peptide synthesis
Settings: whole synthesis, analytical reversed-phase HPLC with UV detector

YLFSVHWPPLKA
final HPLC purity: 98%

From paper PMC5997322 (PLoS ONE, 2018)
